# Results reported in the supplement of paper PMC4604168 (melanoma cell lines).
# The other results are listed elsewhere or left out. Many values rest on one well or one pass, so single values are uncertain.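 The apoptosis fraction was the count of cleaved-PARP antibody-stained nuclei relative to all DNA-stained nuclei, imaged in 1,536-well plates. Screening doses were set so most cells survived, and baseline and induced cleaved-PARP levels vary greatly across cell lines.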
# System: COLO800
# Assay: cleaved PARP positive nuclei fraction relative to DMSO control; melanoma cells; higher = more apoptosis
# Settings: library dose: low library concentration; 72 h
row,Compound,cleaved PARP positive nuclei fraction
1,"CC1(C)CCC(c2ccc(Cl)cc2)=C(CN2CCN(c3ccc(C(=O)NS(=O)(=O)c4ccc(N[C@H](CCN5CCOCC5)CSc5ccccc5)c(S(=O)(=O)C(F)(F)F)c4)cc3)CC2)C1 + CNC(=O)c1cc(Oc2ccc(NC(=O)Nc3ccc(Cl)c(C(F)(F)F)c3)cc2)ccn1 [sorafenib] (first compound 0.4 µM, partner dose 0.4 µM)",23.7%
2,"NC(=O)c1ccc(N(C(N)=O)c2c(F)cccc2F)nc1-c1ccc(F)cc1F + COc1ccc(C2=N[C@@H](c3ccc(Cl)cc3)[C@@H](c3ccc(Cl)cc3)N2C(=O)N2CCNC(=O)C2)c(OC(C)C)c1 [Nutlin-3] (first compound 0.4 µM, partner dose 0.1 µM)",79.5%
3,"C[C@]1(O)C[C@@H](c2nc(-c3ccc4ccc(-c5ccccc5)nc4c3)c3c(N)nccn32)C1 + Cn1c(=O)n(-c2ccc(C(C)(C)C#N)cc2)c2c3cc(-c4cnc5ccccc5c4)ccc3ncc21 [NVP-BEZ235] (first compound 0.4 µM, partner dose 0.004 µM)",183%
4,"CC1(C)CCC(c2ccc(Cl)cc2)=C(CN2CCN(c3ccc(C(=O)NS(=O)(=O)c4ccc(N[C@H](CCN5CCOCC5)CSc5ccccc5)c(S(=O)(=O)C(F)(F)F)c4)cc3)CC2)C1 + Nc1ncn([C@H]2C[C@H](O)[C@@H](CO)O2)c(=O)n1 [decitabine] (first compound 0.4 µM, partner dose 0.1 µM)",48.1%

# System: COLO829
# Assay: as above
# Settings: library dose: low library concentration; 72 h
row,Compound,cleaved PARP positive nuclei fraction
1,"CC1(C)CCC(c2ccc(Cl)cc2)=C(CN2CCN(c3ccc(C(=O)NS(=O)(=O)c4ccc(N[C@H](CCN5CCOCC5)CSc5ccccc5)c(S(=O)(=O)C(F)(F)F)c4)cc3)CC2)C1 + Cc1cn(-c2cc(NC(=O)c3ccc(C)c(Nc4nccc(-c5cccnc5)n4)c3)cc(C(F)(F)F)c2)cn1 [nilotinib] (first compound 0.4 µM, partner dose 0.2 µM)",98.2%
2,"C[C@@H](N)c1ccc(C(=O)Nc2ccnc3[nH]ccc23)cc1 + CCCCCCCCc1ccc(CCC(N)(CO)CO)cc1 [fingolimod] (first compound 0.4 µM, partner dose 2 µM)",140%
3,"Cn1cnc2c(F)c(Nc3ccc(Br)cc3Cl)c(C(=O)NOCCO)cc21 [selumetinib] + CCCCCCCCc1ccc(CCC(N)(CO)CO)cc1 [fingolimod] (first compound 0.015 µM, partner dose 2 µM)",138%
4,"C[C@]1(O)C[C@@H](c2nc(-c3ccc4ccc(-c5ccccc5)nc4c3)c3c(N)nccn32)C1 + Nc1ccn([C@@H]2O[C@H](CO)[C@@H](O)C2(F)F)c(=O)n1 [gemcitabine] (first compound 0.4 µM, partner dose 0.0004 µM)",96.1%
5,"CCCCCCCCc1ccc(CCC(N)(CO)CO)cc1 [fingolimod] + Nc1nc(F)nc2c1ncn2[C@@H]1O[C@H](CO)[C@@H](O)[C@@H]1O [fludarabine] (first compound 2 µM, partner dose 0.2 µM)",66.1%
6,"CCCCCCCCc1ccc(CCC(N)(CO)CO)cc1 [fingolimod] + C#Cc1cccc(Nc2ncnc3cc(OCCOC)c(OCCOC)cc23)c1 [erlotinib] (first compound 2 µM, partner dose 0.8 µM)",70%
7,"C[C@]1(O)C[C@@H](c2nc(-c3ccc4ccc(-c5ccccc5)nc4c3)c3c(N)nccn32)C1 + O=C(O)[C@@H]1[O][Sb](=[O])([O][Sb]2(=[O])[O][C@H]([C@H](O)CO)[C@H](O)[C@H](C(=O)O)[O]2)[O][C@H]([C@H](O)CO)[C@@H]1O [stibogluconate] (first compound 0.4 µM, partner dose 2 µM)",73%
8,"CC1(C)CCC(c2ccc(Cl)cc2)=C(CN2CCN(c3ccc(C(=O)NS(=O)(=O)c4ccc(N[C@H](CCN5CCOCC5)CSc5ccccc5)c(S(=O)(=O)C(F)(F)F)c4)cc3)CC2)C1 + COc1ccc(Cl)c(Nc2nc3ccccc3nc2NS(=O)(=O)c2cccc(NC(=O)C(C)(C)N)c2)c1 [XL147] (first compound 0.4 µM, partner dose 0.8 µM)",39.2%
9,"CC(=O)O[C@@]12CO[C@@H]1C[C@H](O)[C@@]1(C)C(=O)[C@H](O)C3=C(C)[C@@H](OC(=O)[C@H](O)[C@@H](NC(=O)OC(C)(C)C)c4ccccc4)C[C@@](O)([C@@H](OC(=O)c4ccccc4)[C@H]21)C3(C)C [Docetaxel] + Cc1nc(Nc2ncc(C(=O)Nc3c(C)cccc3Cl)s2)cc(N2CCN(CCO)CC2)n1 [dasatanib] (first compound 0.0001 µM, partner dose 0.004 µM)",457%

# Two records drawn at random from the list so far, as already listed:
row,Compound,cleaved PARP positive nuclei fraction
3,"Cn1cnc2c(F)c(Nc3ccc(Br)cc3Cl)c(C(=O)NOCCO)cc21 [selumetinib] + CCCCCCCCc1ccc(CCC(N)(CO)CO)cc1 [fingolimod] (first compound 0.015 µM, partner dose 2 µM)",138%
5,"CCCCCCCCc1ccc(CCC(N)(CO)CO)cc1 [fingolimod] + Nc1nc(F)nc2c1ncn2[C@@H]1O[C@H](CO)[C@@H](O)[C@@H]1O [fludarabine] (first compound 2 µM, partner dose 0.2 µM)",66.1%
